The results in this text go back to article PMC7698587.

For one test, the target named is PRCD_GST (mouse). Put plainly: pull-down; in vitro translated TULP1_HA or TUB_HA mixed with 20 µg purified PRCD-GST beads in pull-down buffer (20 mM Hepes, 100 mM NaCl, 1% NP-40, 20% glycerol), 1 h at room temperature; blot with anti-HA; only the target purified.
A further test deals with PRCD_GST p.C2Y (mouse). Described as above.
A further test addresses PRCD_GST p.P25T (mouse). The description is as above.
Another test concerns the target PRCD_Myc (mouse). The experiment in a line: co-IP; lysates of co-transfected COS-7 cells in WCE buffer (25 mM HEPES pH 7.7, 0.3 M NaCl, 0.1% Triton X-100); anti-Myc tag antibody overnight at 4 °C, Protein A Sepharose; blot with anti-HA.
Test [1] deals with PRCD-Myc-Ras bait (pMet425-PRCD-Myc-Ras) (mouse). The experiment in a line: two-hybrid; Ras recruitment system (cytoplasmic yeast two-hybrid) in cdc25-2 yeast; PRCD-Myc-Ras bait, myristoylated prey from a bovine retinal cDNA library; growth on GAL-LUM at 24 °C and 36 °C.

These are yes or no findings as the source states them, for the method shown. Binding can be weak; no strength is given. For some assays here: Binding seen in cells or lysates may run through a third protein.

B1: truncated TUB_HA, tubby domain (aa 248-506) (domain or fragment, UniProt P50586-1 248-505)
chain: QDLEEFALRPAPQGITIKCRITRDKKGMDRGMYPTYFLHLDREDGKKVFLLAGRKRKKSKTSNYLISVDPTDLSRGGDSYIGKLRSNLMGTKFTVYDNGVNPQKASSSTLESGTLRQELAAVCYETNVLGFKGPRKMSVIVPGMNMVHERVCIRPRNEHETLLARWQNKNTESIIELQNKTPVWNDDTQSYVLNFHGRVTQASVKNFQIIHGNDPDYIVMQFGRVAEDVFTMDYNYPLCALQAFAIALSSFDSKLACE
On to B1, for which the binding result with PRCD_GST (mouse) was “binds”.

B2: TULP1_HA, in vitro translated (wild type, limits not stated) (protein, UniProt Q9Z273 1-543)
chain: MPLQEETLREVWASDSGHEEDCLSPEPPLRPKQRPAQGQKLRKKKPETPDSLESKPRKAGAGRRKHEEPPADSAEPRAAQTVYAKFLRDPEAKKRDPRENFLVARAPDLGGEENSEEDSDDDDNDDDEEEEEKKEGKKEKSSLPPKKAPKEREKKAKALGPRGDVGSPDAPRKPLRTKKKEVGEGTKLRKAKKKGPGETDKDPAGSPAALRKEFPAAMFLVGEGGAAEKGVKKKGPPKGSEEEKKEEEEEVEEEVASAVMKNSNQKGRAKGKGKKKVKEERASSPPVEVGEPREFVLQPAPQGRAVRCRLTRDKKGMDRGMYPSYFLHLDTEKKVFLLAGRKRKRSKTANYLISSDPTNLSRGGENFIGKLRSNLLGNRFTVFDNGQNPQRGGGGDVGSLRQELAAVVYETNVLGFRGPRRMTVIIPGMNSDNERVPIRPRNASDGLLVRWQNKTLESLIELHNKPPIWNEDSGSYTLNFQGRVTQASVKNFQIVHADDPDYIVLQFGRVAEDAFTLDYRYPLCALQAFAIALSSFDGKLACE
For the molecule B2, the binding result with PRCD_GST p.C2Y (mouse) and with PRCD_GST p.P25T (mouse) was “binds” throughout.

B3: TULP1_HA (full-length mouse TULP1) (protein, UniProt Q9Z273 1-543)
chain: MPLQEETLREVWASDSGHEEDCLSPEPPLRPKQRPAQGQKLRKKKPETPDSLESKPRKAGAGRRKHEEPPADSAEPRAAQTVYAKFLRDPEAKKRDPRENFLVARAPDLGGEENSEEDSDDDDNDDDEEEEEKKEGKKEKSSLPPKKAPKEREKKAKALGPRGDVGSPDAPRKPLRTKKKEVGEGTKLRKAKKKGPGETDKDPAGSPAALRKEFPAAMFLVGEGGAAEKGVKKKGPPKGSEEEKKEEEEEVEEEVASAVMKNSNQKGRAKGKGKKKVKEERASSPPVEVGEPREFVLQPAPQGRAVRCRLTRDKKGMDRGMYPSYFLHLDTEKKVFLLAGRKRKRSKTANYLISSDPTNLSRGGENFIGKLRSNLLGNRFTVFDNGQNPQRGGGGDVGSLRQELAAVVYETNVLGFRGPRRMTVIIPGMNSDNERVPIRPRNASDGLLVRWQNKTLESLIELHNKPPIWNEDSGSYTLNFQGRVTQASVKNFQIVHADDPDYIVLQFGRVAEDAFTLDYRYPLCALQAFAIALSSFDGKLACE
With B3, the binding result in the test with PRCD_Myc (mouse) was “binds”.

B4: truncated TULP1_HA, N-terminal part (aa 1-288) (domain or fragment, UniProt Q9Z273 1-288)
chain: MPLQEETLREVWASDSGHEEDCLSPEPPLRPKQRPAQGQKLRKKKPETPDSLESKPRKAGAGRRKHEEPPADSAEPRAAQTVYAKFLRDPEAKKRDPRENFLVARAPDLGGEENSEEDSDDDDNDDDEEEEEKKEGKKEKSSLPPKKAPKEREKKAKALGPRGDVGSPDAPRKPLRTKKKEVGEGTKLRKAKKKGPGETDKDPAGSPAALRKEFPAAMFLVGEGGAAEKGVKKKGPPKGSEEEKKEEEEEVEEEVASAVMKNSNQKGRAKGKGKKKVKEERASSPPVE
Turning to B4, in the test with PRCD_GST (mouse), the binding entry is on record as “no binding”.

B5: TUB_HA (full-length TUB) (protein, UniProt P50586-1 1-505)
chain: MTSKPHSDWIPYSVLDDEGSNLRQQKLDRQRALLEQKQKKKRQEPLMVQANADGRPRSRRARQSEEQAPLVESYLSSSGSTSYQVQEADSIASVQLGATRPPAPASAKKSKGAAASGGQGGAPRKEKKGKHKGTSGPATLAEDKSEAQGPVQILTVGQSDHDKDAGETAAGGGAQPSGQDLRATMQRKGISSSMSFDEDEDEDENSSSSSQLNSNTRPSSATSRKSIREAASAPSPAAPEPPVDIEVQDLEEFALRPAPQGITIKCRITRDKKGMDRGMYPTYFLHLDREDGKKVFLLAGRKRKKSKTSNYLISVDPTDLSRGGDSYIGKLRSNLMGTKFTVYDNGVNPQKASSSTLESGTLRQELAAVCYETNVLGFKGPRKMSVIVPGMNMVHERVCIRPRNEHETLLARWQNKNTESIIELQNKTPVWNDDTQSYVLNFHGRVTQASVKNFQIIHGNDPDYIVMQFGRVAEDVFTMDYNYPLCALQAFAIALSSFDSKLACE
With B5, the binding entry with PRCD_Myc (mouse) is “binds”.

B6: truncated TULP1_HA, C-terminal part (aa 289-543) (domain or fragment, UniProt Q9Z273 290-543)
chain: GEPREFVLQPAPQGRAVRCRLTRDKKGMDRGMYPSYFLHLDTEKKVFLLAGRKRKRSKTANYLISSDPTNLSRGGENFIGKLRSNLLGNRFTVFDNGQNPQRGGGGDVGSLRQELAAVVYETNVLGFRGPRRMTVIIPGMNSDNERVPIRPRNASDGLLVRWQNKTLESLIELHNKPPIWNEDSGSYTLNFQGRVTQASVKNFQIVHADDPDYIVLQFGRVAEDAFTLDYRYPLCALQAFAIALSSFDGKLACE
Regarding B6, the binding entry with PRCD_GST (mouse) is listed as “binds”.

B7: bovine TULP1 prey clone (amino acids 220-546) (domain or fragment, UniProt E1BHT9 220-546)
chain: PAAMFLVPGECPAEKTLKKKGTPKGSEEEKKEEGEEDDEAAAAMTKNSNQKGKAKGKGKKKAKEDRAPSPPVEVDEPQEFVLRPAPQGRTVRCRLTRDKKGMDRGLYPSYFLHLDTEKKVFLLAGRKRKRSKTANYLISSDPTNLSRGGENFIGKLRSNLLGNRFTVFDNGQNPHRGGSTDVGSLRQELAAVIYETNVLGFRGPRRMTVIIPGMNSDNERVPIRPRNASDGLLVRWQNKTLESLIELHNKPPIWNEDSGSYTLNFQGRVTQASVKNFQIVHADDPDYIVLQFGRVAEDAFTLDYRYPLCALQAFAIALSSFDGKLAC
With B7, the binding result in test [1] is listed as “binds”.
